Reference: PMC5300761
For at least one entry, the source does not settle the construct or the ends of the probe.

By UniProt entry, the sequences of proteins in these tests, tags left out.
UniProt O88477, whole entry: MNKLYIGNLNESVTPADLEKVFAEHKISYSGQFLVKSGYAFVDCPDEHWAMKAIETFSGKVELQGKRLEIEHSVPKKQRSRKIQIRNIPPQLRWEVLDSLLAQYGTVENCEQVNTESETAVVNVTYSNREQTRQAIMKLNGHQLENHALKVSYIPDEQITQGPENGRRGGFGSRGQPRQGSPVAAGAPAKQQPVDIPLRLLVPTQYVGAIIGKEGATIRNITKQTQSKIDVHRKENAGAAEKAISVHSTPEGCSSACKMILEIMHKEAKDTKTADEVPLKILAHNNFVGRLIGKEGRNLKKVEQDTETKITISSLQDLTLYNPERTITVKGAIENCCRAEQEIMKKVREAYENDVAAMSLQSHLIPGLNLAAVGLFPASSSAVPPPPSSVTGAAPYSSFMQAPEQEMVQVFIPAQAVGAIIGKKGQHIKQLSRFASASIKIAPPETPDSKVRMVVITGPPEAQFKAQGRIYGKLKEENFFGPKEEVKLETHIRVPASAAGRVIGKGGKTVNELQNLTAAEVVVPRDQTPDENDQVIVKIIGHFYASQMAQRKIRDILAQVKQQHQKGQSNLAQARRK

Target: CRD-BP WT (mouse) (UniProt O88477)
Assay: EMSA
Settings: 40 nM RNA; competitor preincubation 35 C); recombinant protein; label: 32P-UTP internal; probe letters rebuilt from the primers and the genome; part of a longer molecule

For “AUUGUACAAAUAAGUGUGCAGUAUCUGUGAACUGAAUUCACCACAGACUUUAGCUUUCUGAGCAAGAGGAUUGAGAUUUUUAUGCCUGUGACUUCCUUGGAAAUCAAAUGUAAAGUUUAAUUGAAAGAAUGUAAAGCAACCA [MITF RNA 1550-1740 (del1621-1669)]”, the Kd was 0.97 µM.
